Source: PubChem BioAssay AID686943 (Drosophila RNAi Screening Center, 2013)

Test: 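Fly genes whose loss alters ERK activation after insulin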 (primary screen)
System: Drosophila S2R+ haemocyte-like cells expressing YFP-tagged ERK (Rolled)
Reagents: long dsRNA against Drosophila genes
Conditions: insulin stimulation versus unstimulated cells; dose and duration not given
Measurement: 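Antibody staining for doubly phosphorylated ERK divided by ERK-YFP signal, as plate z-scores, in insulin-treated and untreated cells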
Direction: replicate 1, z-score of dpERK with insulin: higher = more active ERK per ERK-YFP after insulin
The deposit covers about 23,000 reagents; shown is an unselected part of those with a known target gene and a result. 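Extra replicates exist only for a retested subset of genes; insulin dose and duration not given; both raised and lowered dpERK matter.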 Reagents against one gene are numbered here. A plus sign joins genes that one reagent is predicted to hit. Not all columns of the deposit are shown. The record does not give: the amount of reagent, the time to read-out.

| gene | reagent | replicate 1, z-score of dpERK with insulin |
| --- | --- | --- |
| Nse1 | 1 | -0.17 |
| tsr | 1 | 1.33 |
| P5CS | 1 | 0.02 |
| P5CS | 2 | -0.19 |
| CG15571 | 1 | -0.1 |
| CG8746 | 1 | -0.04 |
| CG6209 | 1 | 0.46 |
| Cyp6g2 | 1 | -0.03 |
| CG12020 | 1 | -0.14 |
| CG10803 | 1 | 0.01 |
| Mtr3 | 1 | -1.42 |
| CG34163 | 1 | -0.39 |
| Oli | 1 | 0.15 |
| CG6583 | 1 | -0.34 |
| dgt1 | 1 | -0.09 |
| Ced-12 | 1 | -0.26 |
| CG33155 + mRpL53 | 1 | -0.17 |
| CG42516 + Pbp49 | 1 | -0.19 |
| mys | 1 | 0.34 |
| CG18473 | 1 | -0.7 |
| brn | 1 | 0.34 |
| CycK | 1 | 1.79 |
| Ubc7 | 1 | -0.29 |

3 neighbouring records already listed, for reference:
| gene | reagent | replicate 1, z-score of dpERK with insulin |
| --- | --- | --- |
| Ced-12 | 1 | -0.26 |
| CG33155 + mRpL53 | 1 | -0.17 |
| CG42516 + Pbp49 | 1 | -0.19 |
